One assay addresses T1, BLOS1-FLAG (mouse) (UniProt O55102).
T1 sequence: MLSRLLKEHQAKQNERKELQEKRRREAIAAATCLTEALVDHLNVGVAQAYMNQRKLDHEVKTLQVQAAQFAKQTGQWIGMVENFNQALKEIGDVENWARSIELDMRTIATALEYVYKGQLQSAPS
Briefly: co-IP; HEK293T cells co-transfected for 48 to 72 hr; whole cell lysate (50 mM Tris-HCl pH 7.0, 150 mM NaCl, 1 mM EDTA, 1% Triton X-100) incubated with anti-FLAG M2 agarose beads overnight at 4°C, no cross-linking; immunoblotting.

Sequences of proteins named here, by UniProt entry; tags and fusion partners are left off. Residues count along the entry.
UniProt Q9EQW7: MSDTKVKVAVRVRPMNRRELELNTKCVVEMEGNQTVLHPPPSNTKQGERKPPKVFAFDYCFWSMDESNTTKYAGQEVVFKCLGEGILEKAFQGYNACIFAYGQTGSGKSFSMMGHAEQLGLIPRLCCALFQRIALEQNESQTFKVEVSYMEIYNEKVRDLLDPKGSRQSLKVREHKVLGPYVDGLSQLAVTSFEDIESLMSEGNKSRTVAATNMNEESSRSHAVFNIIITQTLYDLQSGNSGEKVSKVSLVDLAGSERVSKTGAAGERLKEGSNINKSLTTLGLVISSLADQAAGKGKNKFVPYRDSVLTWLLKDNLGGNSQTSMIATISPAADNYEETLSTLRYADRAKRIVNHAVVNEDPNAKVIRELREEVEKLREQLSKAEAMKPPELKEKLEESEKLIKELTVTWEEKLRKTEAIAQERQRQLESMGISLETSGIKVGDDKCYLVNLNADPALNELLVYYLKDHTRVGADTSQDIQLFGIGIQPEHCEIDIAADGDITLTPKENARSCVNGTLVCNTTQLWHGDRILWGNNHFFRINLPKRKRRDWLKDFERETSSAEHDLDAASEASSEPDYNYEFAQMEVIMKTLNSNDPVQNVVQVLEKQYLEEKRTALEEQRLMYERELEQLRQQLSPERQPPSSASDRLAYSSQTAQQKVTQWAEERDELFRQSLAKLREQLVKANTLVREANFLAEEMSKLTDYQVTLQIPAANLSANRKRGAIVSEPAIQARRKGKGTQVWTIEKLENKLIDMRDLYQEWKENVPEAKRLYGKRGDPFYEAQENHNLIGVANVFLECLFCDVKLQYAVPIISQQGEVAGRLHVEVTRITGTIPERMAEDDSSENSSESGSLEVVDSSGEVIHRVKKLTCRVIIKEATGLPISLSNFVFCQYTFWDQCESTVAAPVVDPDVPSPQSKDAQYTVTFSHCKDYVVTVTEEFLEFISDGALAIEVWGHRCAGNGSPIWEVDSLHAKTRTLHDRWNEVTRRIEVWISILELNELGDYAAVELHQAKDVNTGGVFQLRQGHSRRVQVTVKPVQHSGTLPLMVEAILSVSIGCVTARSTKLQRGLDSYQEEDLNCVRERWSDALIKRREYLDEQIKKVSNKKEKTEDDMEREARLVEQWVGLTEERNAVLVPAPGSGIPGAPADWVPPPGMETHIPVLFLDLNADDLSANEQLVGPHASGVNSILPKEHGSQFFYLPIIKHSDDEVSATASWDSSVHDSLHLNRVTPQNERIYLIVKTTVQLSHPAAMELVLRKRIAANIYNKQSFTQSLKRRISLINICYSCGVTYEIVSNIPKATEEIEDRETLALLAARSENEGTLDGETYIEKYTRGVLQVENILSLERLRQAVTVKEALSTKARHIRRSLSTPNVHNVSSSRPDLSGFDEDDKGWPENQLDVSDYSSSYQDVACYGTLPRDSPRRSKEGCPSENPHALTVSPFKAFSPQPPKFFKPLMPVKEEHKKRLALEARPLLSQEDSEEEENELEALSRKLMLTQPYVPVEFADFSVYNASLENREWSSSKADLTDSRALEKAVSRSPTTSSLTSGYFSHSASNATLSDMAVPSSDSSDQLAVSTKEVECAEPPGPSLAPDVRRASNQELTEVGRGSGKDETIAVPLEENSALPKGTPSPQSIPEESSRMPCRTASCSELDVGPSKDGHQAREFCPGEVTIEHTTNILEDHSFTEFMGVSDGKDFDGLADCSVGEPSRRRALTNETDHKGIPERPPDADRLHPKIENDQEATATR
UniProt P35951, residues 22-862: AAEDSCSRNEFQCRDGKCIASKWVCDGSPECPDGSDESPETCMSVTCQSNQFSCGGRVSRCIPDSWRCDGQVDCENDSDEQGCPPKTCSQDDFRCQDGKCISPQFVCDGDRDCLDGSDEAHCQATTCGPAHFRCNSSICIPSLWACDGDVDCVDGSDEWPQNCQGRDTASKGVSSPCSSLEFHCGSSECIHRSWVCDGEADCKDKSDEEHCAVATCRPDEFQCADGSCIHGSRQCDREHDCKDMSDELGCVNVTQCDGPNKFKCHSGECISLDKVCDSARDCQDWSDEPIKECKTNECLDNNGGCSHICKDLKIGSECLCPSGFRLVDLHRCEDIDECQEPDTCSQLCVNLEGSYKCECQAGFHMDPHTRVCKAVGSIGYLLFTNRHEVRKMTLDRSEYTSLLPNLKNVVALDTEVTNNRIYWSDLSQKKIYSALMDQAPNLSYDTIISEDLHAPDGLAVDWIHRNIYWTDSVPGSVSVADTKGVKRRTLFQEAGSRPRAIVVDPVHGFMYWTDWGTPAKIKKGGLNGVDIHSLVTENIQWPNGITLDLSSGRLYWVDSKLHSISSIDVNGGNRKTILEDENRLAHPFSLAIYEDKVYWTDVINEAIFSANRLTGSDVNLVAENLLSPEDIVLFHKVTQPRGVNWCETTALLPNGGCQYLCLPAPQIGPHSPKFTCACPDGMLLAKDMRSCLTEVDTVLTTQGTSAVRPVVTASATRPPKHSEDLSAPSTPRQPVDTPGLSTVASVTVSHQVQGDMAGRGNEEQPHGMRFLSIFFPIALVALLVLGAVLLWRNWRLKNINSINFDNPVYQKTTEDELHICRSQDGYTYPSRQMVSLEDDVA

A further assay concerns the target T2, GST-BLOS1 (mouse) (UniProt O55102).
T2 sequence: T1 sequence
Briefly: pull-down; GST fusion protein on glutathione-Sepharose beads, washed, incubated with 500 µL mouse liver lysate overnight at 4°C; immunoblotting; only the target purified. (In general: A western blot detects proteins with antibodies after separation by electrophoresis.)

For a further assay, the target named is KIF13A-FLAG (mouse) (UniProt Q9EQW7). Kind of assay: co-IP; HEK293T cells co-transfected for 48 to 72 hr; whole cell lysate (50 mM Tris-HCl pH 7.0, 150 mM NaCl, 1 mM EDTA, 1% Triton X-100) incubated with anti-FLAG M2 agarose beads overnight at 4°C, no cross-linking; immunoblotting.

Results are given in words; binding and its absence hold for the method and conditions named. In cells and extracts the contact can be indirect. Some results given as binding are weak or reduced against the parent protein; the word gives no strength. For part of these data: Sequences can lack the tags named with a protein.

On to “LDLR (co-overexpressed with BLOS1-FLAG in HEK293T) (from UniProt P35951 22-862) (receptor)”, for which the binding entry with BLOS1-FLAG (mouse) is “binds”.
As for “LDLR (endogenous, mouse liver lysate) (from UniProt P35951 22-862) (receptor)”, the binding result with GST-BLOS1 (mouse) is given as “binds”.
On to “LDLR-HA (from UniProt P35951 22-862) (receptor)”, for which, in the assay with KIF13A-FLAG (mouse), the binding result is recorded as “binds”.

These data come from PMC7688313.
